Compound in this test: Cc1cc(ccc1-c1ccccc1)C(=O)N1CCCN(CC1)C(=O)CCl [compound 10]
In words: probe-labelled cysteine peptide fold change vs DMSO (competition) (log2 fold change); higher = less target engagement (more negative = stronger competition). As to conditions: THP-1, incubation time: 4 h.

This is one part of the list.
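Also: competitive profiling in live THP-1 cells: cysteine peptides tagged with an iodoacetamide desthiobiotin (IA-DTB) probe, intensity after compound treatment relative to DMSO-treated cells.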

“GPI_P06744_404_MIPCDFLIPVQTQHPIR (UniProt P06744)”: the “probe-labelled cysteine peptide fold change” value was -0.0103 (10 µM) and 0.2 (50 µM).

Turning to “GNPAT_O15228_478_VDSGDSEVVDGLMLQHITLLMCSAYR (UniProt O15228)”, the “probe-labelled cysteine peptide fold change” value was found to be 0.354 (10 µM) and 0.562 (50 µM).

In the case of “GMPR2_Q9P2T1_224_GHIISDGGCSCPGDVAK (UniProt Q9P2T1)”, the “probe-labelled cysteine peptide fold change” value is, setting by setting: (10 µM) -0.0167; (50 µM) -0.135.

Consider “GNAI1_P63096_66_IIHEAGYSEEECK (UniProt P63096)”, for which the “probe-labelled cysteine peptide fold change” value reads like this: (10 µM) -0.0126; (50 µM) 0.0109.

As for “GNB1_P62873_148+149_ELAGHTGYLSCCR (UniProt P62873)”, the “probe-labelled cysteine peptide fold change” value by setting is: (10 µM) -0.185; (50 µM) -0.407.

With “GLOD4_Q9HC38_221_IAFSCPQK (UniProt Q9HC38)”, the “probe-labelled cysteine peptide fold change” value came out at 0.465 (10 µM) and 0.094 (50 µM).

As for “GNB2_P62879_25_ACGDSTLTQITAGLDPVGR (UniProt P62879)”, the “probe-labelled cysteine peptide fold change” value was -0.0156 (10 µM) and 0.388 (50 µM).

For “GMPR2_Q9P2T1_222+224_GHIISDGGCSCPGDVAK (UniProt Q9P2T1)”, the “probe-labelled cysteine peptide fold change” value is, setting by setting: (10 µM) -0.11; (50 µM) -0.49.

In the case of “GLG1_Q92896_639_CLIDLGK (UniProt Q92896)”, the “probe-labelled cysteine peptide fold change” value runs as follows: (10 µM) -0.208; (50 µM) 0.0807.

On to “GPT2_Q8TD30_281_CIEDVIHFAWEEK (UniProt Q8TD30)”, for which the “probe-labelled cysteine peptide fold change” value by setting is: (10 µM) -0.103; (50 µM) -0.0683.

As to “GLMP_Q8WWB7_216_LLHTADTCQLEVALIGASPR (UniProt Q8WWB7)”, the “probe-labelled cysteine peptide fold change” value was 0.0516 (10 µM) and -0.177 (50 µM).

Consider “GLIPR1_P48060_156_VGCAVQFCPK (UniProt P48060)”, for which the “probe-labelled cysteine peptide fold change” value reads like this: (10 µM) 0.0182; (50 µM) -0.139.

Turning to GMPS_P49915_4_ALCNGDSK (UniProt P49915), the “probe-labelled cysteine peptide fold change” value (10 µM) was -0.313 and the “probe-labelled cysteine peptide fold change” value (50 µM) was -0.226.

Take “GPD2_P43304_45_AADCISEPVNR (UniProt P43304)”: the “probe-labelled cysteine peptide fold change” value runs as follows: (10 µM) -0.21; (50 µM) 0.0491.

For the target “GNE_Q9Y223_520_TPLSDTLHLPVWVDNDGNCAALAER (UniProt Q9Y223)”, the “probe-labelled cysteine peptide fold change” value (10 µM) is 0.111 and the “probe-labelled cysteine peptide fold change” value (50 µM) was 0.248.
